# Source: article PMC7819943, “Rice protein-binding microarrays: a tool to detect cis-acting elements near promoter regions in rice”
# Amino acid sequences for entries named in this document (tags omitted).
# UniProt Q0JBA9, entry or part of it: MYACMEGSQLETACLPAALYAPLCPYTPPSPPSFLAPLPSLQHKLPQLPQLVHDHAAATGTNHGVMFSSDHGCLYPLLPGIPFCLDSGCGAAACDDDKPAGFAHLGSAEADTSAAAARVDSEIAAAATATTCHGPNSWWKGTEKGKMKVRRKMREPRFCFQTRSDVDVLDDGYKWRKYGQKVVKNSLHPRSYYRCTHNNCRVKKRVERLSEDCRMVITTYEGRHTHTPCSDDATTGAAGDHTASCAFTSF
# This is one part of the list.
# Target: OsWRKY34 (Oryza sativa, UniProt Q0JBA9 1-250)
# Assay: protein-binding microarray (RPBM); PBS, 2% BSA, 51.3 ng/ul salmon testes DNA, 50 uM zinc acetate, 200 nM TF, 25 C, 1 h; high values mean tight binding
# Settings: protein: recombinant; tags: N-terminal polyhistidine and DsRed monomer fusion (pET32a); label: CyDye5-dUTP incorporated in the synthesized complementary strand; 3' TTTTT single-stranded linker to array surface; dsDNA, one strand shown
# Outline: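 The binding signal is fluorescence intensity per array feature (arbitrary units). Readings came from an Axon 4000B scanner after a washed, 2% BSA-blocked, double-stranded custom Agilent array had been incubated for 1 h at 25 °C with 200 nM protein and 50 µM zinc acetate. The protein was a Ni–NTA-purified transcription factor fused N-terminally to polyhistidine and DsRed, expressed in E. coli BL21-CodonPlus.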
row,Sequence,binding signal
1,TTTTCTCGCTCTCTTCTCCGCCAGTCTGAGTCGCCATTCTCGGAGTCACCTAGTGCAG,8380 fluorescence intensity (a.u.)
2,TACCAATTTTACTGCTTATCATTTCTAGTGTTCTTTAAGTCGGAGTCACCTAGTGCAG,9330 fluorescence intensity (a.u.)
3,TGCCAGCCAAGCATCCAACCTTCTCATTCTTCTTTTCTTTCGGAGTCACCTAGTGCAG,9770 fluorescence intensity (a.u.)
4,CGCCTCGGCCCTTTTCGCTTTTTTCCATTGCATGCACATACGGAGTCACCTAGTGCAG,9210 fluorescence intensity (a.u.)
5,ACTTCGCTTCTCGGTTGGCAGCAGCGATTTCATCCAAGCACGGAGTCACCTAGTGCAG,8040 fluorescence intensity (a.u.)
6,CCTCGTGTACCGTGCGCACGCTTTTTAAACTGTTAAACACCGGAGTCACCTAGTGCAG,12000 fluorescence intensity (a.u.)
7,CAGTTCTTCGTTCTTGTCTTTACTCTCATGATTTTCTCTTCGGAGTCACCTAGTGCAG,10900 fluorescence intensity (a.u.)
8,AGCTCCATCACATCCTTTTTTTTTCACCTATACTATATAACGGAGTCACCTAGTGCAG,8920 fluorescence intensity (a.u.)
9,CGCGCCGCCTCTCCTTGTTGTCTCGTCGCGCGCCGGCGCCCGGAGTCACCTAGTGCAG,11800 fluorescence intensity (a.u.)
10,GTCAACTTGCCGTCAACTGTTCGTCTGTTGCCACCCATTTCGGAGTCACCTAGTGCAG,9410 fluorescence intensity (a.u.)
11,ATCTACTGTATATATATCCTCTATCTTTAATTATTATTATCGGAGTCACCTAGTGCAG,10300 fluorescence intensity (a.u.)
12,TTCTTATTTTTAGGGTCATGTATAGTCGCTGTCATCTTACCGGAGTCACCTAGTGCAG,11800 fluorescence intensity (a.u.)
13,TCATTCATATTATTTATTATTTAGTTGTTTGACTTTTTTTCGGAGTCACCTAGTGCAG,9600 fluorescence intensity (a.u.)
14,CAAACATGTGCTAAAAAGTCAACGGTGTCAAATATTTTGACGGAGTCACCTAGTGCAG,8100 fluorescence intensity (a.u.)
15,ACAACCGAAGTTCCCTCAATTCTTTTTTCTTGACTTGATTCGGAGTCACCTAGTGCAG,8640 fluorescence intensity (a.u.)
16,ATGGCAATTACACACCGCCCCATCAGCCCCGTACTCGCTCCGGAGTCACCTAGTGCAG,8030 fluorescence intensity (a.u.)
17,ATCTGCCATTTTCTGCTCCTTAAATTCTTTAGCCATGGTACGGAGTCACCTAGTGCAG,8720 fluorescence intensity (a.u.)
18,TCGGTGGTGTGGGGAGGTCCGTGGAGATGGCGGCGTGGGGCGGAGTCACCTAGTGCAG,16100 fluorescence intensity (a.u.)
19,AACCACTACTTTGTTTCTTGGACTTCTTAGGTTACTTTGTCGGAGTCACCTAGTGCAG,11400 fluorescence intensity (a.u.)
20,ATACTTCATCCGTTTCTAAATATTTGATGCCGTTGACTTTCGGAGTCACCTAGTGCAG,17600 fluorescence intensity (a.u.)
21,ACTGCGTGTACGGTGTAACGGGTCATTTTTTTCTTTGCTGCGGAGTCACCTAGTGCAG,8890 fluorescence intensity (a.u.)

row,Sequence,binding signal
1,GTCCAATGTTTGACGTTTATCCATCTTTCTTTTTTGGGACCGGAGTCACCTAGTGCAG,8120 fluorescence intensity (a.u.)
2,TCTCTCTGGTCACAAGTACTTGTCACTTTGAACATGCCTTCGGAGTCACCTAGTGCAG,13500 fluorescence intensity (a.u.)
3,CTCTATTCTGCTATGCCTCTATCAATTTACTTTGCAATTTCGGAGTCACCTAGTGCAG,8410 fluorescence intensity (a.u.)
4,CCCTTTGCTCCGCTCACACTGCACAGCGCCACCACACTGCCGGAGTCACCTAGTGCAG,10300 fluorescence intensity (a.u.)
5,CGCGAGCCTCACCCGGTCGCAACCCCGACCCGACCCGCAACGGAGTCACCTAGTGCAG,8520 fluorescence intensity (a.u.)
6,AAGGTTTAATTTGGTCTTTCACGTTTTATTTTGTCCATATCGGAGTCACCTAGTGCAG,8370 fluorescence intensity (a.u.)
7,AGTATCAGGTTCTTTTATTTATTTATATATATATATATATCGGAGTCACCTAGTGCAG,8460 fluorescence intensity (a.u.)
8,GCTCACTTCTACTACTACTTAGCACTTCACTTTGTCACCGCGGAGTCACCTAGTGCAG,9850 fluorescence intensity (a.u.)
9,CAAGTCAATTTTTTCCTTTCGTCGCCACGGTCGCTGAAAACGGAGTCACCTAGTGCAG,9850 fluorescence intensity (a.u.)
10,GATGTCCGCGCTCCATGTCCCACACTGTTCTACTTTCAGGCGGAGTCACCTAGTGCAG,10400 fluorescence intensity (a.u.)
11,GATGGCGACGACAGGCTGCGGGCGGAGCAGAGGGGCGGGCCGGAGTCACCTAGTGCAG,8640 fluorescence intensity (a.u.)
12,CTCTTATAACCACTTCTTTTTAAATCATTTGTTTATATGTCGGAGTCACCTAGTGCAG,10200 fluorescence intensity (a.u.)
13,GTTTTGACCCGGTTTTGGTCTACGTGGCGCTGAGTCAGCGCGGAGTCACCTAGTGCAG,8660 fluorescence intensity (a.u.)
14,GATAGATGATTTACCAAGGCTCTTGTTCATATTGTTCAGTCGGAGTCACCTAGTGCAG,8660 fluorescence intensity (a.u.)
15,TGGGTCAGTCTTCTATCAAGATTTATTTCGTCTATCTTACCGGAGTCACCTAGTGCAG,8960 fluorescence intensity (a.u.)
16,GTTTTTCCAGCGCCCAAATCTCTCGGCGGGGACCTCCATGCGGAGTCACCTAGTGCAG,8310 fluorescence intensity (a.u.)
17,ACGCGCGCATCTTCTACGACTTCCCGCGCCGCCGCTTCGCCGGAGTCACCTAGTGCAG,10500 fluorescence intensity (a.u.)
18,CCACACAACGACGTCGCCACTCGCACCGTCCAACCGCGTCCGGAGTCACCTAGTGCAG,12400 fluorescence intensity (a.u.)
19,ACCAATATGTTTCCATCTATATAGTTATGTTTCCGGTTTTCGGAGTCACCTAGTGCAG,15500 fluorescence intensity (a.u.)
20,GGCAGAGAGGGTGGATGAGGCGGTGTGGGCGTCGCCGACGCGGAGTCACCTAGTGCAG,8090 fluorescence intensity (a.u.)
21,GCCGCATGGTGACCGTTCTTCTCTCCTACAGGTGGTTCAACGGAGTCACCTAGTGCAG,8070 fluorescence intensity (a.u.)

# Rewritten with bars between the fields: part of the list above.
row | Sequence | binding signal
14 | GATAGATGATTTACCAAGGCTCTTGTTCATATTGTTCAGTCGGAGTCACCTAGTGCAG | 8660 fluorescence intensity (a.u.)
15 | TGGGTCAGTCTTCTATCAAGATTTATTTCGTCTATCTTACCGGAGTCACCTAGTGCAG | 8960 fluorescence intensity (a.u.)
